Chains of the proteins cited; added tags and fusions are not shown.
UniProt P21554, whole entry: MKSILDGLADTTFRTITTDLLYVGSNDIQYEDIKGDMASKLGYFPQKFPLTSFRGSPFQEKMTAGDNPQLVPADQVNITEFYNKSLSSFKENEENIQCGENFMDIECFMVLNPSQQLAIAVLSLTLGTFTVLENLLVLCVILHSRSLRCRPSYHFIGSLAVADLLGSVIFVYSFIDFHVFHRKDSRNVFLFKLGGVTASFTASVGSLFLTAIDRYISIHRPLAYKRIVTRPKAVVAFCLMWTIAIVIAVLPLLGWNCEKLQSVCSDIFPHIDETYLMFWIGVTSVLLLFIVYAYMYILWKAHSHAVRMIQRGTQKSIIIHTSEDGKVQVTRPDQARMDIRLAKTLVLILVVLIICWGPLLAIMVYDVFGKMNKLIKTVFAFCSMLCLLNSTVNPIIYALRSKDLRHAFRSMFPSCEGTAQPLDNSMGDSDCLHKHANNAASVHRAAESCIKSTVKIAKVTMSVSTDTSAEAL

In patent publication US11084781B2, “Diarylureas as CB1 allosteric modulators” (Research Triangle Institute, priority 2017, dated 2021):

Experiments:
[1] = target: T1, human CB1 receptor (Homo sapiens, UniProt P21554); assay: CB1 calcium mobilization assay (antagonist mode, against EC80 of CP55,940); type: cell-based; settings: read-out: CB1 calcium assay IC50; Table 2; against EC80 (100 nM) of CP55,940; mean ± S.E.M.
[2] = target: T1, human CB1 receptor; assay: CB1 calcium mobilization assay, agonist screen; type: cell-based; settings: Table 2; 10,000 nM final concentration; mean ± SD

## O=C(Nc1ccc(Cl)cc1)Nc1ccc(-c2cccc(N3CCCC3)n2)cc1
[1]
  IC50: 219 nM
[2]
  CB1 calcium assay Agonist screen (% CP55, 940 Emax): 23 ± 5 % CP55, 940 Emax

The match of structure and compound is tentative.
